In PubChem BioAssay AID651640 (Broad Institute, 2012):
Out of some 350,000 compounds screened, about 6,000 (1.7%) were called active. Inconclusive means that the source gave no clear call. Such entries were picked first, then a sample of the others. Cut-off read from the data, not from the text of the source: active = CPE inhibition above about 20% (passing the limit was not always enough); inconclusive = no clear call, values can overlap the other calls; tested in BHK-21 cells.

Assay: protection of cells from dengue 2 killing – plate reader, single concentration, primary screen (AID 651640);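 note: 0% = median of neutral control wells and 100% = median of positive control wells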
Conditions: DENV2-infected cells, cytopathic effect rescue, at 9.99 µM, active compounds read high
In the case of `C[C@H]1CN([C@@H](C)CO)C(=O)Cc2cc(NS(=O)(=O)c3ccc(F)cc3)ccc2O[C@@H]1CN(C)C(=O)Nc1ccccc1`, the CPE inhibition was active: 62.4%. In the case of `CCCNC(=O)N[C@H]1CC[C@H](CCNS(=O)(=O)c2cccc(F)c2)O[C@@H]1CO`, the CPE inhibition was inactive: -4.09%. For `COCC(=O)N(C)C[C@@H]1Oc2ncc(Br)cc2C(=O)N([C@@H](C)CO)C[C@H]1C`, the CPE inhibition was inconclusive: 44%. For `Cc1ccccc1S(=O)(=O)N1CC[C@@H]2[C@H]1c1cc(-c3ccc(C#N)cc3)ccc1N[C@@H]2CO`, the CPE inhibition was active: 77.4%. With `COC(=O)C1=C(C(=O)OC)[C@@H]2Nc3ccccc3[C@@]23C[C@@H](C(=O)OC)N(C(=O)c2cccs2)C3=N1` the CPE inhibition was active: 67.6%. With `COc1ccccc1-c1cn(CC[C@H]2CC[C@@H](NC(=O)Cc3ccccn3)[C@@H](CO)O2)nn1` the CPE inhibition was inconclusive: 62.5%. For `CNC(=O)C[C@@H]1CC[C@H]2[C@H](COc3ccc(NC(=O)Cc4cccs4)cc3C(=O)N2C)O1`, the CPE inhibition was inactive: -1.99%. With `C[C@@H]1CCCCO[C@@H](CN(C)Cc2ccc(Cl)c(Cl)c2)[C@@H](C)CN([C@H](C)CO)C(=O)c2cc(NC(=O)Nc3ccc(C(F)(F)F)cc3)ccc2O1` the CPE inhibition was inactive: -6.21%. For `COC(=O)C[C@H]1CC[C@H]2[C@H](COc3ccc(NC(=O)Nc4ccc(C)cc4)cc3C(=O)N2C)O1`, the CPE inhibition was inconclusive: 23%. In the case of `CCOc1ccc(N(CC(=O)Nc2ccccc2OC)S(=O)(=O)c2ccccc2)cc1`, the CPE inhibition was inactive: -3.84%. For `C[C@@H]1CN([C@@H](C)CO)S(=O)(=O)c2ccc(-c3cccc(C#N)c3)cc2O[C@H]1CN(C)C(=O)c1cccnc1`, the CPE inhibition was inactive: -6.08%. In the case of `Cc1ccc(S(=O)(=O)CC(=O)Nc2c(C)n(C)n(-c3ccccc3)c2=O)cc1`, the CPE inhibition was inconclusive: 26.4%. In the case of `Cc1ccccc1S(=O)(=O)N1CC[C@@H]2[C@H]1c1cc(-c3ccccc3)ccc1N[C@@H]2CO`, the CPE inhibition was inactive: -3.29%. In the case of `CC(C)NC(=O)Nc1ccc2c(c1)C(=O)N([C@@H](C)CO)C[C@@H](C)[C@H](CN(C)S(=O)(=O)c1ccc(F)cc1)OCCCC[C@@H](C)O2`, the CPE inhibition was inconclusive: 38.6%. In the case of `CCCNC(=O)C[C@H]1CC[C@H]2[C@@H](COC[C@@H](O)CN2S(=O)(=O)c2ccccc2F)O1`, the CPE inhibition was inactive: 8.07%. In the case of `COCCNC(=O)CN(C(=O)CCC(=O)Nc1nccs1)c1ccc2c(c1)OCO2`, the CPE inhibition was inactive: -8.98%. In the case of `O=C(CCn1cnc2ccccc21)N/N=C/C=C/c1ccccc1`, the CPE inhibition was inactive: -10.4%. For `Cc1ccc(-c2ccc3c(c2)O[C@H](CN(C)Cc2ccccn2)[C@@H](C)CN([C@@H](C)CO)S3(=O)=O)cc1`, the CPE inhibition was inactive: 14.5%. With `COCCNC(=O)C[C@H]1C[C@@H]2c3cc(NC(=O)Nc4ccc(C(F)(F)F)cc4)ccc3O[C@@H]2[C@@H](CO)O1` the CPE inhibition was inconclusive: 35.3%. With `CC(=O)N(C)C[C@@H]1Oc2ncc(-c3ccccc3C)cc2C(=O)N([C@H](C)CO)C[C@H]1C` the CPE inhibition was inconclusive: 36%. For `CCNC(=O)C[C@H]1CC[C@H]2[C@@H](COC[C@H](O)CN2Cc2ccc(Cl)c(Cl)c2)O1`, the CPE inhibition was active: 109%. With `O=C(N[C@@H]1C=C[C@@H](CC(=O)N2CCc3ccccc3C2)O[C@H]1CO)C1CC1` the CPE inhibition was inactive: -1.1%. In the case of `COCCNC(=O)C1CC2Cn3c(nc4cc(C)c(C)cc43)C2N1C` (centres undefined), the CPE inhibition was active: 29.1%. With `CCOC(=O)C1CCN(C(=O)c2ccc(N3CCOCC3)c([N+](=O)[O-])c2)CC1` the CPE inhibition was inconclusive: 51.8%. With `FC(F)(F)C(F)(F)C(F)(F)c1nc2nc(Cl)c(Cl)nc2[nH]1` the CPE inhibition was inconclusive: 23.3%. In the case of `Cc1ccc(C(=O)Cc2ccccc2)cc1`, the CPE inhibition was inconclusive: 22.4%. For `C[C@H](CO)N1C[C@H](C)[C@@H](CN(C)Cc2cncnc2)Oc2cc(C#C[C@@H](C)O)ccc2S1(=O)=O`, the CPE inhibition was inactive: -4.1%. In the case of `O=C(O)Cc1sc(-c2cccnc2)nc1-c1ccc(Br)cc1`, the CPE inhibition was inconclusive: 36.6%. In the case of `O=C(Nc1nnc([C@@H]2C[C@H](O)[C@@H](CO)O2)s1)Nc1ccccc1F`, the CPE inhibition was inconclusive: 21.9%. In the case of `O=C(NCC(c1ccco1)N1CCc2ccccc21)c1c(F)cccc1F` (centres undefined), the CPE inhibition was active: 63.5%. In the case of `C[C@@H]1CN([C@@H](C)CO)C(=O)c2cc(NC(=O)Nc3ccc(F)cc3)ccc2O[C@@H](C)CCCCO[C@@H]1CN(C)Cc1ccc(C(=O)O)cc1`, the CPE inhibition was inactive: -4.62%. For `Fc1cccc(CCN2CCN=C2Nc2ccccc2)c1`, the CPE inhibition was inconclusive: 26%. For `CCN(CC)C(=O)[C@H]1C[C@@H]2[C@H](C[C@@H](c3ccccc3)[C@H]1C)N(c1ccc(F)cc1)C(=O)N2C/C=C(\C)CCC=C(C)C`, the CPE inhibition was inconclusive: 20.6%. For `COc1ccc(CN(C)C[C@H]2OCCCC[C@@H](C)Oc3ccc(NS(=O)(=O)c4ccc(OC)cc4)cc3C(=O)N([C@@H](C)CO)C[C@@H]2C)cc1`, the CPE inhibition was inconclusive: 22.3%. In the case of `Cc1ccc(Cl)cc1NC(=S)N(Cc1cccs1)C1CCCC1`, the CPE inhibition was inconclusive: 33.5%. In the case of `Cc1ccc(-c2ccc3c(c2)O[C@@H](CN(C)Cc2ccccc2)[C@@H](C)CN([C@@H](C)CO)S3(=O)=O)cc1`, the CPE inhibition was inconclusive: 22.5%. For `O=C(NCCCc1ccccc1)C(=O)NCC1OCCN1S(=O)(=O)c1cc(F)ccc1F` (centres undefined), the CPE inhibition was inconclusive: 60.4%. In the case of `C[C@H]1CN([C@@H](C)CO)C(=O)Cc2cc(NS(=O)(=O)c3ccc(Cl)cc3)ccc2O[C@@H]1CN(C)S(=O)(=O)c1ccc(Cl)cc1`, the CPE inhibition was inconclusive: 33.4%. With `COc1ccc(CNC(=O)C[C@H]2C[C@@H]3c4cc(NC(=O)NC5CCCC5)ccc4O[C@@H]3[C@H](CO)O2)cc1` the CPE inhibition was inconclusive: 51.8%. With `C[C@@H]1CN([C@@H](C)CO)C(=O)c2cccc(NS(C)(=O)=O)c2O[C@H]1CN(C)C(=O)Nc1ccc(C(F)(F)F)cc1` the CPE inhibition was active: 79%. In the case of `CN(Cc1ccccc1)C(=O)c1cccc(NC(=O)Cc2ccc(NC(=O)C3CCCN(C(=O)c4ccccc4)C3)cc2)c1` (centres undefined), the CPE inhibition was inconclusive: 33.2%. For `CCN(CC)S(=O)(=O)c1ccc(/C=C/C(=O)OCC(=O)Nc2ccc(C(N)=O)cc2)cc1`, the CPE inhibition was inactive: 0.45%. In the case of `CCOc1ccc(C(=O)Cc2ccccc2)cc1`, the CPE inhibition was inconclusive: 60%. With `COc1cc(OC)cc(-c2c(-c3ccc(F)cc3)c3cc(Br)ccc3n2C)c1` the CPE inhibition was inconclusive: 20.7%. In the case of `Cc1cc(/C=C\c2nc(O)c([N+](=O)[O-])c(=O)[nH]2)c(C)n1-c1ccccc1`, the CPE inhibition was inconclusive: 25.9%. In the case of `C[C@@H]1CN([C@H](C)CO)C(=O)c2cccc(NC(=O)C3CCOCC3)c2O[C@H]1CN(C)Cc1ccc(Oc2ccccc2)cc1`, the CPE inhibition was active: 24.7%. For `COc1ccc(N2CCN(Cc3nc4c(c(=O)n(C)c(=O)n4C)n3Cc3ccccc3C)CC2)cc1`, the CPE inhibition was inconclusive: 40.8%. With `Cc1ccc(C)c(SCC(=O)NC(=O)NC2CCCC2)c1` the CPE inhibition was inconclusive: 32.6%. For `Cc1noc(C)c1-c1ccc(C(=O)Nc2cccc(C(F)(F)F)c2)c2occc12`, the CPE inhibition was inactive: -11.9%. For `COCC(=O)Nc1ccc2c(c1)C(=O)N(C)C[C@H](OC)[C@H](C)CN(C(=O)c1ccccn1)[C@H](C)CO2`, the CPE inhibition was active: 31.4%. With `CN(C)Cc1cccc(-c2ccccc2)c1O` the CPE inhibition was inconclusive: 51.4%. With `CNC(=S)N1N=C(c2ccc(Br)cc2)CC1c1ccc(N(C)C)cc1` (centres undefined) the CPE inhibition was inactive: 18.2%. In the case of `COC(=O)[C@]12C[C@H](CC(=O)NCc3cccc4ccccc34)C(=O)N(CCC3=CCCCC3)C1=C[C@H](COCc1ccccc1)O[C@@H]2C`, the CPE inhibition was inconclusive: 35.9%. In the case of `CCOc1ccc(C(=O)Nc2ccc(CN3CCOCC3)cc2)cc1Br`, the CPE inhibition was active: 37.1%. For `C[C@@H]1CN([C@H](C)CO)C(=O)c2cc(NC(=O)Nc3ccc4c(c3)OCO4)ccc2O[C@@H](C)CCCCO[C@H]1CN(C)S(=O)(=O)c1cccs1`, the CPE inhibition was inactive: -4.41%. For `C[C@H](CO)N1C[C@H](C)[C@H](CN(C)C(=O)Nc2ccc3c(c2)OCO3)Oc2ccc(NC(=O)CCCCCC(=O)Nc3ccccc3N)cc2C1=O`, the CPE inhibition was active: 48%. With `C(=N\Nc1nc2ccccc2[nH]1)/c1cccc2cccnc12` the CPE inhibition was inactive: -10.4%. With `CCN1CCN(CCNC(=O)C2CCCN(Cc3nc(-c4cccc(Cl)c4)oc3C)C2)CC1` (centres undefined) the CPE inhibition was inconclusive: 44.5%. With `C[C@H](NC(=O)C[C@H]1C=C[C@@H](NC(=O)Cc2ccccn2)[C@H](CO)O1)c1ccccc1` the CPE inhibition was inactive: 5.44%. For `CCc1ccccc1NC(=O)C1CCCN1C(=O)Nc1ccc(C)cc1` (centres undefined), the CPE inhibition was inactive: 10.6%. For `COc1ccc(CN2CCC[C@]3(N[C@H](c4ccc(OC)cc4)[C@@H]4C(=O)N(C)C(=O)[C@@H]43)C2=O)cc1`, the CPE inhibition was active: 27.2%. For `C[C@H](O)C#Cc1ccc2c(c1)O[C@H](CN(C)Cc1ccccn1)[C@H](C)CN([C@@H](C)CO)S2(=O)=O`, the CPE inhibition was inactive: 14.5%. For `COCC(=O)Nc1ccc2c(c1)OC[C@@H](C)NC[C@H](C)[C@@H](OC)CN(C)C2=O`, the CPE inhibition was inactive: 8.56%. For `COc1ccc(NC(=O)Nc2ccc3c(c2)CC(=O)N([C@H](C)CO)C[C@@H](C)[C@H](CN(C)S(=O)(=O)c2cn(C)cn2)O3)cc1`, the CPE inhibition was active: 75%. With `O=C(COC(=O)c1cccs1)Nc1ccccc1Cl` the CPE inhibition was inconclusive: 21.1%. For `Cc1cc(Br)ccc1OCc1nnc(-c2ccccc2)o1`, the CPE inhibition was inactive: -7.76%. With `CSCCC(NS(=O)(=O)c1ccc(Cl)cc1)C(=O)OCC(=O)N1CCCc2ccccc21` (centres undefined) the CPE inhibition was inconclusive: 32.4%. With `CCCCC1=CC2=CC(=O)C(C)(OC(=O)CC)C(=O)C2=CN1c1cccc(C#N)c1` (centres undefined) the CPE inhibition was active: 25.8%. In the case of `CC1(c2nnc(-c3ccccc3)o2)CC(c2ccccc2)=NO1` (centres undefined), the CPE inhibition was inconclusive: 21%.
